Assay [1] deals with Myo19-3xIQ (human myosin-19, amino acids 1–851) with N-terminal FLAG and C-terminal Strep-Tactin tag (human) (UniProt Q96H55). The assay is described as follows: affinity purification with mass spectrometry; FLAG-Myo19-3xIQ-Strep expressed in Expi293; tandem Strep-Tactin XT and anti-FLAG purification from lysate; 50 mM Hepes pH 7.5, 150 mM NaCl, 5 mM MgCl2, 1 mM EGTA, 5 mM ATP in lysis; LC-MS/MS of the 12 to 30 kDa range; motor domain (MD) as control sample.

Chains of the proteins cited; added tags and fusions are not shown.
UniProt P60660: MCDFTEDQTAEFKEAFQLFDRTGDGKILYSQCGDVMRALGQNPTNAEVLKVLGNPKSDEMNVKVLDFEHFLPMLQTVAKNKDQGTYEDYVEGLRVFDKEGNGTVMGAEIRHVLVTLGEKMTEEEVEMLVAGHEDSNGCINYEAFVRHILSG
UniProt O14950: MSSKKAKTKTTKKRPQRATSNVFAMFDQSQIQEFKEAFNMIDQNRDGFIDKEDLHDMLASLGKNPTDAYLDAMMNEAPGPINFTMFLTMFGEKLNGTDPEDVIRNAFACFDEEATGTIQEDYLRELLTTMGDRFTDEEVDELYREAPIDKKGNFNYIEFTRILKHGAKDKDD

The target is the same in assay [2]. The assay is described as follows: affinity purification with mass spectrometry; as a1 but with 1 mM CaCl2 added instead of EGTA.

These are yes or no findings as the source states them, for the method shown. In cells and extracts the contact can be indirect. A yes stands for co-enrichment or nearness to the bait. Other partners may have been found. No binding means not detected with the bait.

Take “Cytoplasmic essential light chain MYL6 (ELC6), endogenous in Expi293 cells (from UniProt P60660 1-151)”: the binding result in assay [1] and in assay [2] was “no binding” in each case.

On to “Regulatory light chain RLC12B (MYL12B), endogenous in Expi293 cells (from UniProt O14950 1-172)”, for which the binding result in assay [1] and in assay [2] was “binds” each time.

For the origin of these results see article PMC9929473, “Ensembles of human myosin-19 bound to calmodulin and regulatory light chain RLC12B drive multimicron transport” (The Journal of Biological Chemistry, 2023).
